Results: patent publication US20210284952A1, “METHODS OF APPLYING ACETATE TOXICITY AND INDUCING ACETATE UPTAKE IN MICROALGAE CULTURES” (HELIAE DEVELOPMENT LLC, priority 2016, published 2021)
Where two headings read alike, the source gives them in different places.

Experiments:
Chlorella sp. HS26 = conditions: stabilized value after pH lowered to 6.5
[1] = system: Aurantiochytrium sp. HS399

## CC(=O)O [Acetic Acid, acetic acid]
Chlorella sp. HS26
  internal acetate concentration: above 1500 ppm
[1]; pH 4.5, averaged over days 1-6
  Average residual Acetate: 2.0 g/L
[1]; pH 5.0, averaged over days 1-6
  Average residual Acetate: 1.5 g/L
[1]; pH 5.5, averaged over days 1-6
  Average residual Acetate: 1.25 g/L
[1]; pH 7.0, averaged over days 1-6
  Average residual Acetate: 1.0 g/L
